The text below walks through data of paper PMC5592244.

In the test the target is FLAG-UBR5-CS (catalytically dead UBR5, C2768S) (human) (UniProt O95071). Description: affinity purification with mass spectrometry; FLAG-tagged UBR5 baits in LiCl-stimulated HEK293T cells; lysis buffer 20 mM Tris-HCl pH 7.4, 100 mM NaCl, 10% glycerol, 0.2% Triton X-100; Flag affinity gel 2 hr at 4°C; eluted with 3xFlag-Peptide; LC-MS/MS.

Results are given in words; binding and its absence hold for the method and conditions named. Binding seen in cells or lysates may run through a third protein. These calls come from enrichment with a bait or labelling near it, and not all partners need be listed.

B1: ATXN2L (endogenous, HEK293T) (protein, UniProt Q8WWM7 1-1075)
chain: MLKPQPLQQPSQPQQPPPTQQAVARRPPGGTSPPNGGLPGPLATSAAPPGPPAAASPCLGPVAAAGSGLRRGAEGILAPQPPPPQQHQERPGAAAIGSARGQSTGKGPPQSPVFEGVYNNSRMLHFLTAVVGSTCDVKVKNGTTYEGIFKTLSSKFELAVDAVHRKASEPAGGPRREDIVDTMVFKPSDVMLVHFRNVDFNYATKDKFTDSAIAMNSKVNGEHKEKVLQRWEGGDSNSDDYDLESDMSNGWDPNEMFKFNEENYGVKTTYDSSLSSYTVPLEKDNSEEFRQRELRAAQLAREIESSPQYRLRIAMENDDGRTEEEKHSAVQRQGSGRESPSLASREGKYIPLPQRVREGPRGGVRCSSSRGGRPGLSSLPPRGPHHLDNSSPGPGSEARGINGGPSRMSPKAQRPLRGAKTLSSPSNRPSGETSVPPPPAVGRMYPPRSPKSAAPAPISASCPEPPIGSAVPTSSASIPVTSSVSDPGVGSISPASPKISLAPTDVKELSTKEPGRTLEPQELARIAGKVPGLQNEQKRFQLEELRKFGAQFKLQPSSSPENSLDPFPPRILKEEPKGKEKEVDGLLTSEPMGSPVSSKTESVSDKEDKPPLAPSGGTEGPEQPPPPCPSQTGSPPVGLIKGEDKDEGPVAEQVKKSTLNPNAKEFNPTKPLLSVNKSTSTPTSPGPRTHSTPSIPVLTAGQSGLYSPQYISYIPQIHMGPAVQAPQMYPYPVSNSVPGQQGKYRGAKGSLPPQRSDQHQPASAPPMMQAAAAAGPPLVAATPYSSYIPYNPQQFPGQPAMMQPMAHYPSQPVFAPMLQSNPRMLTSGSHPQAIVSSSTPQYPSAEQPTPQALYATVHQSYPHHATQLHAHQPQPATTPTGSQPQSQHAAPSPVQHQAGQAPHLGSGQPQQNLYHPGALTGTPPSLPPGPSAQSPQSSFPQPAAVYAIHHQQLPHGFTNMAHVTQAHVQTGITAAPPPHPGAPHPPQVMLLHPPQSHGGPPQGAVPQSGVPALSASTPSPYPYIGHPQGEQPGQAPGFPGGADDRIREFSLAGGIWHGRAEGLQVGQDARVLGGE
B1: the binding result was “binds”.
